In the supplement of paper PMC12873370:
Where “and” joins values, the source holds several entries; their conditions need not be identical. Equal entries are not always repeated. This is one part of the list. Many values rest on one well or one pass, so single values are uncertain.

Experiments:
Test in all cases: cell viability relative to untreated (fraction); higher = less growth inhibition
Settings in all cases: 5 µM; 3 days
[1] = system: MEPP (mouse ovarian epithelium Trp53/Pten KO)
[2] = system: PREPP (mouse prostate epithelium Trp53/Pten KO)
[3] = system: MEPP (mouse ovarian epithelium Trp53/Pten KO); remark: listed apart in the source
[4] = system: PREPP (mouse prostate epithelium Trp53/Pten KO); remark: listed apart in the source

Structure (SMILES)	cell viability [1]	cell viability [2]	cell viability [3]	cell viability [4]
C[S@+]([O-])CCCCN=C=S	1.16	0.978		
Cc1sc2c(c1C)C(c1ccc(Cl)cc1)=N[C@@H](CC(N)=O)c1nnc(C)n1-2	1.01	0.672		
CC[C@@H](C(=O)[C@@H](C)[C@@H](O)[C@H](C)[C@@H]1O[C@@H]([C@@H](CC)C(=O)O)CC[C@@H]1C)[C@H]1O[C@]2(C=C[C@@H](O)[C@]3(CC[C@@](C)([C@H]4CC[C@](O)(CC)[C@H](C)O4)O3)O2)[C@H](C)C[C@@H]1C			0.607	0.292
BrC1C(Br)C(Br)C(Br)C(Br)C1Br (configuration not stated)	0.918	1.09		
NCC(O)c1ccccc1 (configuration not stated)			0.787	1.08
O=C(O)CNC(=O)C1C(=O)N(C2CCCCC2)C(=O)N(C2CCCCC2)C1=O	0.882	1.14		
CC(=O)Oc1ccc(/C=C/c2cc(OC(C)=O)cc(OC(C)=O)c2)cc1	0.678	0.981	0.899	0.9
COc1cc([C@@H]2c3cc4c(cc3[C@H](O)[C@H]3COC(=O)[C@@H]23)OCO4)cc(OC)c1OC			0.638	0.769
CO[C@H]1C[C@H](O[C@H]2CC[C@@]3(C)[C@H](CC[C@@H]4[C@@H]3CC[C@]3(C)[C@@H](C5=CC(=O)OC5)[C@@H](OC(C)=O)C[C@]43O)C2)O[C@@H](C)[C@@H]1O			1.03	0.936
C=C(C)[C@H]1Cc2c(ccc3c2O[C@@H]2COc4cc(OC)c(OC)cc4[C@@H]2C3=O)O1			0.669	0.833
CCCCCCC(=O)O[C@H]1CC[C@H]2[C@@H]3CCC4=CC(=O)CC[C@]4(C)[C@H]3CC[C@]12C			1.04	1
CCCC[N+]1(C)[C@@H]2C[C@@H](OC(=O)[C@H](CO)c3ccccc3)C[C@H]1[C@@H]1O[C@@H]12 (some centres not stated)			1.1	0.932
O=C(CBr)c1ccc(O)cc1	1	0.829		
Cn1cc(C2=C(c3cn(C4CCN(Cc5ccccn5)CC4)c4ccccc34)C(=O)NC2=O)c2ccccc21	0.788	0.719		
C[S+]([O-])CCCCN=C=S (configuration not stated)	0.979	0.984	1.24	1
N[C@@H]1C[C@H]1c1ccccc1	1.06	1.03		
C[C@@H]1C(=O)O[C@H]2[C@H](O)[C@@]34O[C@@H]5OC(=O)[C@H](O)[C@@]56[C@H](C(C)(C)C)[C@H](O)C(OC3=O)[C@]64[C@@]12O (some centres not stated)	1.14	0.905	1.11	1.23

Structure (SMILES)	cell viability [1]	cell viability [2]	cell viability [3]	cell viability [4]
Cc1sc2c(c1C)C(c1ccc(Cl)cc1)=N[C@@H](CC(=O)Nc1ccc(O)cc1)c1nnc(C)n1-2	0.673	0.57		
CCC1=CC2CN3CCc4c([nH]c5ccccc45)C(C(=O)OC)(C2)C13 (configuration not stated)			0.892	0.853
CCN1CCN(C(=O)Cc2ccc(Nc3ncc(F)c(Nc4ccc(C(=O)Nc5ccccc5Cl)cc4)n3)cc2)CC1	0.624	0.7		
c1ccc([C@@H]2C[C@H]2NC2CCNCC2)cc1	0.961	0.902		
C[C@]12CC[C@H](O)CC1=CC[C@@H]1[C@@H]2CC[C@]2(C)C(=O)CC[C@@H]12			0.931	0.981
C=C1CC[C@H]2[C@@H](/C=C(\C)C(=O)[C@@]3(O)C[C@H](C)[C@H](O)[C@@H]3[C@@H]1O)C2(C)C			1.2	1.03
COc1ccc(C=O)cc1OC			1.02	0.82
CN1C2CCC1CC(O)C2 (configuration not stated)			0.933	0.724
CCCCCCCCCCCCCC(=O)O[C@@H]1[C@@H](C)[C@@]2(O)[C@@H](C=C(CO)C[C@]3(O)C(=O)C(C)=C[C@@H]23)[C@@H]2C(C)(C)[C@]12OC(C)=O	1.03	1.05	0.814	0.95
O=C(O)CC[N+](=O)[O-]			1.1	0.904
CN(C)NC(=O)CCC(=O)O	1.04	0.911	1.06	0.954
C[C@@]12C(=O)OC(=O)[C@]1(C)[C@H]1CC[C@@H]2O1			0.713	0.763
C/C(O)=C(\C#N)C(=O)Nc1cc(Br)ccc1Br	0.855	0.996		
COc1ccc2c(c[n+](C)c3c4cc5c(cc4ccc23)OCO5)c1OC		0.765 and 0.791	0.374	0.666
C=C[C@@H]1C2=CCOC(=O)C2=CO[C@H]1O[C@@H]1O[C@H](CO)[C@@H](O)[C@H](O)[C@H]1O			1.1	1.11
CCNC(=O)C[C@@H]1N=C(c2ccc(Cl)cc2)c2cc(OC)ccc2-n2c(C)nnc21	0.878	0.619		

Reformatted in markdown: entries from further up.

| Structure (SMILES) | cell viability [1] | cell viability [2] | cell viability [3] | cell viability [4] |
| --- | --- | --- | --- | --- |
| c1ccc([C@@H]2C[C@H]2NC2CCNCC2)cc1 | 0.961 | 0.902 |  |  |
| C[C@]12CC[C@H](O)CC1=CC[C@@H]1[C@@H]2CC[C@]2(C)C(=O)CC[C@@H]12 |  |  | 0.931 | 0.981 |
| C=C1CC[C@H]2[C@@H](/C=C(\C)C(=O)[C@@]3(O)C[C@H](C)[C@H](O)[C@@H]3[C@@H]1O)C2(C)C |  |  | 1.2 | 1.03 |
| CN(C)NC(=O)CCC(=O)O | 1.04 | 0.911 | 1.06 | 0.954 |
| C/C(O)=C(\C#N)C(=O)Nc1cc(Br)ccc1Br | 0.855 | 0.996 |  |  |
| COc1ccc2c(c[n+](C)c3c4cc5c(cc4ccc23)OCO5)c1OC |  | 0.765 and 0.791 | 0.374 | 0.666 |
| C=C[C@@H]1C2=CCOC(=O)C2=CO[C@H]1O[C@@H]1O[C@H](CO)[C@@H](O)[C@H](O)[C@H]1O |  |  | 1.1 | 1.11 |
